The target in this experiment is endogenous IRF3 (interferon response factor 3) of PK15 cells (pig (endogenous in PK15)) (UniProt Q764M6). In words: native gel or EMSA. For orientation: Mobility shift assays separate free from complexed probe on a gel.

No constants are given. Whether binding was seen depends on the method and setting. Some binding calls cover weakened binding; strength is not graded here.

B1: endogenous IRF3 (interferon response factor 3) of PK15 cells (protein, UniProt Q764M6 1-419)
chain: MGTQKPRILPWLISQLNQGQLEGVAWLDEGHTRFRIPWKHGLRQDAQQEDFGIFQAWAEASGAYTPGKDKPDLPTWKRNFRSALNRKEALRLAEDHSKDPHDPHKIYEFVTSGVGDFPEPDTSLDLSGRYSTSDTHEDSLDKLLSGMDLASDAGPQSLTLALEQPPQLSLSPSVDAPASCPNLGVRENPLKQLLANDDEWEFQVTVFYRGCQVFQQTVCSPGGLRLVGSEAEDGTLAGQPVRLPDPAASLTDRGVADYVRRVLSCLGGGLALWRAGQWLWAQRLGHCHVYWAMGEELIPDSGHKPDGEVPKDREGGVFDLGPFIEDLIAFIEGSRRSPRYTLWFCMGQSWPQDEPWVKRLVMVKVVPMCLRALVDMARDGGASSLENTVDLHISNSHPLSLTSDQYKACLRDLVEDMDF
In the case of B1, the binding result was “binds”.
